# According to PubChem BioAssay AID493014 (National Center for Advancing Translational Sciences (NCATS), 2011):
# The list shows a part of the results. The main result of the screen is listed elsewhere. These columns were measured beside it and carry no call. Most of these compounds were active or inconclusive in the main read-out, so they are no random draw. Words in brackets tell the shape of the fitted curve; partial curves, single points and poor fits give uncertain potencies.
# Experiment: qHTS Assay to Find Inhibitors of Chronic Active B-Cell Receptor Signaling
# Conditions: ABC-DLBCL IkBa-CBG/CBR reporter, luminescence ratio (green luciferase fused to IkBa over red control in TMD8 lymphoma cells), 4 h
# Outline: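 Cell line TMD8 (human ABC DLBCL), stably expressing tet-inducible CBG68-IkBa fusion and CBR; IMDM/0.5% FBS; cpd up to 46 uM; dox induction, 4 h, 37C/5% CO2; dual luminescence; green/red ratio; MG132 control.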
# [1] = measured here: CBR red luminescence, cell number
# [2] = measured here: IkBa-CBG green luminescence
structure (smiles),measurement,setting,value
CC12CCC(=O)N1C(C(=O)Nc1nccs1)CS2 (configuration not stated),AC50,[1],"29.1 µM [falling, single point]"
Cc1n[nH]c(C)c1N=Nc1cc(Cl)ccc1Cl,AC50,[1],"1.78 µM [rising, full curve, poor fit]"
Cc1ccc(NC(=O)C2CCC(CNC(=O)[C@@H]3Cc4ccccc4CN3)CC2)c(C)c1 (some centres not stated),AC50,[1],"4.47 µM [falling, partial curve]"
CCCC(=O)Nc1cc(-c2nc3ncccc3o2)ccc1Cl,AC50,[1],"2.82 µM [rising, partial curve, poor fit]"
O=[N+]([O-])/C(C(Cl)=C(Cl)Cl)=C(/Sc1ccccc1)N1CCCCC1,AC50,[1],"3.55 µM [falling, partial curve, poor fit]"
Cn1c(C(=O)N2CCN(c3cccc(C(F)(F)F)c3)CC2)cc2sccc21,AC50,[1],"22.4 µM [falling, single point]"
CN(Cc1ccccc1)C(=O)CSc1nnc(-c2ccco2)n1-c1ccccc1,AC50,[1],"25.1 µM [falling, single point]"
CN(C)c1ccc2c(c1)Sc1cc(N(C)C)ccc1N2C(=O)c1ccccc1,AC50,[1],"3.98 µM [rising, full curve, poor fit]"
O=C(Oc1ccc(Br)cc1C(=S)N1CCOCC1)c1ccc([N+](=O)[O-])cc1[N+](=O)[O-],AC50,[1],"11.2 µM [falling, partial curve]"
O=C(Nc1cccc([N+](=O)[O-])c1)C1C2CCCCC21 (configuration not stated),AC50,[1],"11.2 µM [rising, partial curve]"
O=C(NN1C(=O)/C(=C/c2ccc(O)c([N+](=O)[O-])c2)SC1=S)c1ccccc1Cl,AC50,[1],"35.5 µM [falling, single point]"
same,AC50,[2],"15.8 µM [rising, single point]"
Oc1c(Cl)cc(Cl)cc1Sc1cc(Cl)cc(Cl)c1O,AC50,[1],"14.6 µM [falling, single point]"
same,AC50,[2],"23.1 µM [rising, single point]"
Cc1ccc(-c2noc(COc3ccccc3C)n2)cc1,AC50,[1],"29.1 µM [rising, single point]"
COC(=O)C(C(=O)Nc1ccccc1C)C1CCCC1 (configuration not stated),AC50,[1],"12.6 µM [rising, single point]"
COc1ccccc1C1CCN(C(=O)c2ccc(C(C)(C)C)cc2)CC1,AC50,[1],"10 µM [falling, single point]"
O=C(O)c1ccc2c(=O)n3c(nc2c1)/C(=C/c1cccc(Cl)c1Cl)CC3,AC50,[1],"35.5 µM [rising, single point]"
O=C1[C@H]2[C@@H](C(=O)N1c1cccc3ccccc13)C1(C(=O)c3ccccc3C1=O)N1CCC[C@@H]21,AC50,[1],"12.6 µM [falling, single point]"
S=C(NCc1ccco1)Nc1ccc(Br)cc1Cl,AC50,[1],"31.6 µM [falling, single point]"
c1ccc(Oc2cc(-n3cncn3)ncn2)cc1,AC50,[1],"20.6 µM [rising, single point]"
CCN(CC)C(=O)COc1ccc(-c2nnc(Nc3ccc(OC)c(C(=O)NC)c3)c3ccccc23)cc1,AC50,[1],"5.62 µM [falling, partial curve, poor fit]"
COc1ccc(OC)c(N/C=C/C(=O)c2ccccc2)c1,AC50,[1],"14.1 µM [falling, partial curve, poor fit]"
CCOC(=O)c1ccc(N=Cc2nc(-c3ccccc3)oc2OC(C)=O)cc1,AC50,[1],"1.3 µM [falling, partial curve, poor fit]"
Cc1cccc(NC(=O)NC(=S)NC(=O)c2ccccc2)c1,AC50,[1],"29.1 µM [falling, single point]"
NC(=O)c1cc2ccccc2o/c1=N\NC(=O)c1ccccc1O,AC50,[1],"2.82 µM [falling, single point]"
O=c1c(O)c(-c2ccccc2)oc2cc(O)cc(O)c12,AC50,[1],"18.4 µM [falling, partial curve, poor fit]"
CCc1c(C)nc2ccc(Br)cc2c1Cl,AC50,[1],"0.631 µM [rising, full curve, poor fit]"
Cc1nc(-c2cccc(NC(=O)c3ccc(-n4nccc4C)cc3)c2)cs1,AC50,[1],"14.6 µM [falling, partial curve, poor fit]"
Cc1ccnn1CCC(=O)N1CCCC(N2CCN(c3cccc(Cl)c3)CC2)C1 (configuration not stated),AC50,[1],"6.31 µM [rising, single point]"
Cc1ccccc1-n1c(C)cc(/C=C(\C#N)C(=O)NCC2CCCO2)c1C (configuration not stated),AC50,[1],"29.1 µM [rising, single point]"
COc1cc(OC)cc(C(=O)N2CCN(c3ccccc3F)CC2)c1,AC50,[1],"0.116 µM [falling, full curve, poor fit]"
Cc1noc(C)c1COc1ccc(C(=O)NCc2cccs2)cc1,AC50,[1],"29.1 µM [rising, single point]"
same,AC50,[2],"20.6 µM [falling, partial curve]"
CCCOc1cc(C)c(S(=O)(=O)NC2CC(C)(C)NC(C)(C)C2)cc1C,AC50,[1],"1.64 µM [rising, partial curve, poor fit]"
COc1cccc(CN2CCN(Cc3ccc(OC)c(OC)c3)CC2CCO)c1 (configuration not stated),AC50,[1],"0.794 µM [falling, full curve, poor fit]"
O=c1c(C=NCC2CCCO2)c(-c2ccccc2)[nH]n1-c1ccc([N+](=O)[O-])cc1 (configuration not stated),AC50,[1],"0.794 µM [rising, full curve, poor fit]"
CCN(CC)CCn1c2c(c(SCC(=O)Nc3nc(C)cs3)nc1=O)CCCC2,AC50,[1],"16.4 µM [falling, partial curve, poor fit]"
S=C(NC1CCCCC1)N1CCN(c2ccccn2)CC1,AC50,[1],"0.366 µM [rising, full curve]"
C=C(C)C(O)CC/C(C)=C/Cc1c(O)ccc(C(=O)/C=C/c2ccc(O)cc2)c1O (configuration not stated),AC50,[1],"29.1 µM [falling, single point]"
COC(=O)Cc1cc(OC)c(OC)cc1Cc1cc(OC)c(OC)cc1CC(=O)OC,AC50,[1],"4.61 µM [rising, partial curve, poor fit]"
O=C(c1ccccc1)N1CCN(CC2CC=CCC2)CC1 (configuration not stated),AC50,[1],"20.6 µM [falling, single point]"
Cc1nnc(Sc2cc(NCCCO)c([N+](=O)[O-])c3nonc23)s1,AC50,[1],"35.5 µM [falling, single point]"
same,AC50,[2],"3.98 µM [falling, single point]"
Cc1ccc(Nc2nc(-c3cccnc3)nc3ccccc23)cc1,AC50,[1],"6.31 µM [falling, full curve]"
CCOC(=O)C/C(C)=N/NC(=O)C1CC1(c1ccccc1)c1ccccc1 (configuration not stated),AC50,[1],"29.1 µM [falling, single point]"
Cc1ccc(S(=O)(=O)N(C)/N=C/c2ccc(N(C)C)cc2)cc1,AC50,[1],"10 µM [rising, partial curve, poor fit]"
CC(C)c1ccc(S(=O)(=O)c2cc3cc(Br)ccc3oc2=O)cc1,AC50,[1],"0.651 µM [falling, full curve]"
Cc1cccc(CCNC(=O)c2c[nH]c3ccc(S(=O)(=O)Nc4ccccc4F)cc3c2=O)c1,AC50,[1],"6.31 µM [falling, partial curve, poor fit]"
COc1ccnc(N2CCN(c3ccccc3)CC2)c1C#N,AC50,[1],"5.17 µM [rising, full curve, poor fit]"
O=C(NCCc1ccc(Cl)cc1)c1ccc2c(c1)N(Cc1cccc(Cl)c1)C(=O)c1ccccc1S2(=O)=O,AC50,[1],"14.1 µM [rising, partial curve, poor fit]"
Cc1ccc(-c2ccc(/C=N\n3cnnc3)o2)c(Br)c1,AC50,[1],"15.8 µM [rising, single point]"
COc1cccc(N(CC(=O)N2CCCC2)S(C)(=O)=O)c1,AC50,[1],"4.47 µM [rising, single point]"
Cc1ccc2cccc(OCc3nnc(SCC(=O)O)n3C)c2n1,AC50,[1],"31.6 µM [falling, single point]"
CCSCc1nc2ccccn2c1Br,AC50,[1],"1.58 µM [falling, full curve, poor fit]"
CCOc1ccccc1/C=C/C(=O)N1CCN(C(=O)c2ccco2)CC1,AC50,[1],"29.1 µM [falling, partial curve, poor fit]"
c1ccc(COc2ccccc2CNC2CCCC2)cc1,AC50,[1],"22.4 µM [falling, single point]"
COC(=O)c1c(C)[nH]c(C(=O)OC(C)C(=O)N(C)C2CCCCC2)c1C (configuration not stated),AC50,[2],"11.6 µM [rising, partial curve, poor fit]"
CSCC(O)Cn1ncc2ccccc2c1=O (configuration not stated),AC50,[1],"7.94 µM [rising, partial curve, poor fit]"
Cc1ccc(S(=O)(=O)N2CCN(C(=O)CN3C(=O)NC4(CCOc5ccccc54)C3=O)CC2)cc1 (configuration not stated),AC50,[1],"18.4 µM [rising, partial curve]"
same,AC50,[2],"9.2 µM [falling, partial curve, poor fit]"
CCOc1cc(/C=N/n2cnnc2)ccc1OCC(=O)Nc1ccccc1OC,AC50,[1],"0.0731 µM [falling, full curve, poor fit]"
N#C/C(=C/c1ccc(O)c([N+](=O)[O-])c1)C(=O)Nc1ccccc1,AC50,[1],"31.6 µM [falling, single point]"
Cc1cc(C(=O)OCC(=O)Nc2cccnc2Cl)c2ccccc2n1,AC50,[1],"25.1 µM [falling, single point]"
COc1cccc(C(=O)Nc2ncc3c(n2)CC(C)(C)CC3=O)c1,AC50,[1],"8.91 µM [falling, partial curve]"
COCCCNC(=O)Cn1nnc(-c2ccc(NC(=O)c3ccc(F)cc3)cc2)n1,AC50,[1],"0.164 µM [falling, full curve, poor fit]"
COc1ccccc1/C=C/C(=O)NCCC1=CCCCC1,AC50,[1],"14.1 µM [falling, partial curve]"

# Pulled one by one from the list above, 5 records:
structure (smiles),measurement,setting,value
CSCC(O)Cn1ncc2ccccc2c1=O (configuration not stated),AC50,[1],"7.94 µM [rising, partial curve, poor fit]"
CCOC(=O)C/C(C)=N/NC(=O)C1CC1(c1ccccc1)c1ccccc1 (configuration not stated),AC50,[1],"29.1 µM [falling, single point]"
Cc1ccc(S(=O)(=O)N2CCN(C(=O)CN3C(=O)NC4(CCOc5ccccc54)C3=O)CC2)cc1 (configuration not stated),AC50,[2],"9.2 µM [falling, partial curve, poor fit]"
COC(=O)C(C(=O)Nc1ccccc1C)C1CCCC1 (configuration not stated),AC50,[1],"12.6 µM [rising, single point]"
COc1cccc(C(=O)Nc2ncc3c(n2)CC(C)(C)CC3=O)c1,AC50,[1],"8.91 µM [falling, partial curve]"
